For assay [1], the target named is T1, EphA3/ephrin-A5 complex on cells (cell-surface EphA3 with pre-clustered ephrin-A5-Fc) (human) (UniProt P29320+P52803).
T1 sequence (looked up) 1: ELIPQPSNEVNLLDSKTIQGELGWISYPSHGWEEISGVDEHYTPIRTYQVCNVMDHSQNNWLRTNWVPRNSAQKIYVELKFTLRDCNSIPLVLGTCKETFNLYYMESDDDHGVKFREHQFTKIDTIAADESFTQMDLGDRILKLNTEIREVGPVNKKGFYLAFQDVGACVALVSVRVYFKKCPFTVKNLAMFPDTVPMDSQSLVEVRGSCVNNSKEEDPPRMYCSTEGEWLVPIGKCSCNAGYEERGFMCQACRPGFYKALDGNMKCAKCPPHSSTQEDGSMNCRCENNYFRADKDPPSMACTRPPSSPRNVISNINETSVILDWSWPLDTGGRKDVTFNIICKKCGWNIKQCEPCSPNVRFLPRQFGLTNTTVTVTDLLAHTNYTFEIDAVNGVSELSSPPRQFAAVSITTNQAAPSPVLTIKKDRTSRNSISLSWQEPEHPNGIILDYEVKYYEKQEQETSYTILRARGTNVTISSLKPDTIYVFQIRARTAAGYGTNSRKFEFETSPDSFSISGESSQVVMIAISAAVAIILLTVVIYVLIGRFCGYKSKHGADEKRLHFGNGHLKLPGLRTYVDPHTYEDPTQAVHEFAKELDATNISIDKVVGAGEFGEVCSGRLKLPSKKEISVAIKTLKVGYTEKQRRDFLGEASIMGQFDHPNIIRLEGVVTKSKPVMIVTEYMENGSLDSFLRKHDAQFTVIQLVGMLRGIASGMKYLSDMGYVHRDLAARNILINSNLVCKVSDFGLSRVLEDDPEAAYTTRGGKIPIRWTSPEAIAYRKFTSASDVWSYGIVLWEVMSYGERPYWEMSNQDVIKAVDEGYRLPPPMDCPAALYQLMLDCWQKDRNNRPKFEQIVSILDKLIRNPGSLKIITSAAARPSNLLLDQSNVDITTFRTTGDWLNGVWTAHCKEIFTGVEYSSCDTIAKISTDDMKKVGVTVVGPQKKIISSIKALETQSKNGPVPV
T1 sequence (looked up) 2: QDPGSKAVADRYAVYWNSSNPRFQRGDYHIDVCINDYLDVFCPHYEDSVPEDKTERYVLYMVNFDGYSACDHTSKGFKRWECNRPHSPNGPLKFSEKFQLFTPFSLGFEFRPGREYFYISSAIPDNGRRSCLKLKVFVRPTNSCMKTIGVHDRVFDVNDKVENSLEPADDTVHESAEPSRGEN
Put plainly: anti-EphA3 immunoprecipitation, anti-ADAM10 Western blot. On the technique in general: In western blotting, separated proteins are transferred to a membrane and probed.

Assay [2] has as its target T2, EphA3 (wild type, expressed in cells) (UniProt P29320).
T2 sequence (looked up): T1 sequence (looked up) 1
In words: anti-HA and anti-EphA3 immunoprecipitation from EphA3/293 cells, Western blot.

These are yes or no findings as the source states them, for the method shown. Some binding calls cover weakened binding; strength is not graded here. Tags and fused reporters may be left off the sequences shown.

B1: endogenous ADAM10 (HEK293 and LiBr melanoma cells) (enzyme, human, UniProt O14672 214-748, looked up)
chain: TTSAEKNTCQLYIQTDHLFFKYYGTREAVIAQISSHVKAIDTIYQTTDFSGIRNISFMVKRIRINTTADEKDPTNPFRFPNIGVEKFLELNSEQNHDDYCLAYVFTDRDFDDGVLGLAWVGAPSGSSGGICEKSKLYSDGKKKSLNTGIITVQNYGSHVPPKVSHITFAHEVGHNFGSPHDSGTECTPGESKNLGQKENGNYIMYARATSGDKLNNNKFSLCSIRNISQVLEKKRNNCFVESGQPICGNGMVEQGEECDCGYSDQCKDECCFDANQPEGRKCKLKPGKQCSPSQGPCCTAQCAFKSKSEKCRDDSDCAREGICNGFTALCPASDPKPNFTDCNRHTQVCINGQCAGSICEKYGLEECTCASSDGKDDKELCHVCCMKKMDPSTCASTGSVQWSRHFSGRTITLQPGSPCNDFRGYCDVFMRCRLVDADGPLARLKKAIFSPELYENIAEWIVAHWWAVLLMGIALIMLMAGFIKICSVHTPSSNPKLPPPKPLPGTLKRRRPPQPIQQPQRQRPRESYQMGHMRR
notes: whole, on cells; Both pro and mature forms are marked on the blot; also called pro (unprocessed) and mature (processed) forms
On to B1, for which the binding result in assay [1] is reported as “binds”.

B2: HA-ADAM10ΔMP [EEE-A] (protein, mouse, UniProt O35598 456-749, looked up, not shown: small tags and cut ends)
chain: SGQPICGNGMVEQGEECDCGYSDQCKDDCCFDANQPEGKKCKLKPGKQCSPSQGPCCTAQCAFKSKSEKCRDDSDCAKEGICNGFTALCPASDPKPNFTDCNRHTQVCINGQCAGSICAKYDLAACTCASSDGKDDKELCHVCCMKKMAPSTCASTGSLQWSKQFSGRTITLQPGSPCNDFRGYCDVFMRCRLVDADGPLARLKKAIFSPQLYENIAEWIVAHWWAVLLMGIALIMLMAGFIKICSVHTPSSNPKLPPPKPLPGTLKRRRPPQPIQQPPRQRPRESYQMGHMRR
As for B2, the binding entry in assay [2] was “binds”.

These data come from US7960513B2, “Antibody against a human ADAM protease” (Monash University, priority 2004, dated 2011).
